Results are given in words; binding and its absence hold for the method and conditions named. In cells and extracts the contact can be indirect. A yes stands for co-enrichment or nearness to the bait. Other partners may have been found.
B1: Nop12 (protein, UniProt Q08208 1-459)
chain: MSSAIDNLFGNIDEKKIESSVDKLFSSSCGPINKLEVKSKTRTVLPDSKKRERAAEADQEEKEASKPDVSDEQTEEVALPKVKKAKKSKRNDEDEDLEARYYAKLLNEEAEAEDDKPTVTKTDETSVPLTSAAKKVDFKEDELEKAERTVFIGNILSTVITSKKVYKEFKKLFGTNPIAETEESGNEKEEESSKKSDNNEFAIESIRFRSISFDEALPRKVAFVQQKFHKSRDTINAYIVYKNKSAVRKICSNLNAVVFQDHHLRVDSVAHPAPHDKKRSIFVGNLDFEEIEESLWKHFEPCGDIEYVRIIRDSKTNMGKGFAYVQFKDLQSVNKALLLNEKPMKSQKQEDENTKKPTKKARKLRVSRCKNMKKGTTIGTGLDRNGLTDSQRTRAGRAKKILGKADRATLGQEITIEGLRAKKGEGSTHLKKKKQRSATGRVTKRSIAFKKAQAEKSKK
B2: Lsm1 (protein, UniProt P47017 1-172)
chain: MSANSKDRNQSNQDAKRQQQNFPKKISEGEADLYLDQYNFTTTAAIVSSVDRKIFVLLRDGRMLFGVLRTFDQYANLILQDCVERIYFSEENKYAEEDRGIFMIRGENVVMLGEVDIDKEDQPLEAMERIPFKEAWLTKQKNDEKRFKEETHKGKKMARHGIVYDFHKSDMY
B3: Nce102 (protein, UniProt Q12207 1-173)
chain: MLALADNILRIINFLFLVISIGLISSLLNTQHRHSSRVNYCMFACAYGIFTDSLYGVFANFIEPLAWPLVLFTLDFLNFVFTFTAGTVLAVGIRAHSCNNSSYVDSNKITQGSGTRCRQAQAAVAFLYFSCAIFLAKTLMSVFNMISNGAFGSGSFSKRRRTGQVGVPTISQV
B4: Ist2 (protein, UniProt P38250 1-946)
chain: MSQTITSLDPNCVIVFNKTSSANEKSLNVEFKRLNIHSIIEPGHDLQTSYAFIRIHQDNAKPLFSFLQNLDFIESIIPYHDTELSDDLHKLISISKSKILEAPKQYELYNLSNLTNNPKQSLYFAFLQNYIKWLIPFSFFGLSIRFLSNFTYEFNSTYSLFAILWTLSFTAFWLYKYEPFWSDRLSKYSSFSTIEFLQDKQKAQKKASSVIMLKKCCFIPVALLFGAILLSFQLYCFALEIFIKQIYNGPMISILSFLPTILICTFTPVLTVIYNKYFVEPMTKWENHSSVVNAKKSKEAKNFVIIFLSSYVPLLITLFLYLPMGHLLTAEIRTKVFNAFSILARLPTHDSDFIIDTKRYEDQFFYFIVINQLIQFSMENFVPSLVSIAQQKINGPNPNFVKAESEIGKAQLSSSDMKIWSKVKSYQTDPWGATFDLDANFKKLLLQFGYLVMFSTIWPLAPFICLIVNLIVYQVDLRKAVLYSKPEYFPFPIYDKPSSVSNTQKLTVGLWNSVLVMFSILGCVITATLTYMYQSCNIPGVGAHTSIHTNKAWYLANPINHSWINIVLYAVFIEHVSVAIFFLFSSILKSSHDDVANGIVPKHVVNVQNPPKQEVFEKIPSPEFNSNNEKELVQRKGSANEKLHQELGEKQPASSANGYEAHAATHANNDPSSLSSASSPSLSSSSSSSKTGVVKAVDNDTAGSAGKKPLATESTEKRNSLVKVPTVGSYGVAGATLPETIPTSKNYYLRFDEDGKSIRDAKSSAESSNATNNNTLGTESKLLPDGDAVDALSRKIDQIPKIAVTGGENNENTQAKDDAATKTPLIKDANIKPVVNAAVNDNQSKVSVATEQTKKTEVSTKNGPSRSISTKETKDSARPSNNNTTTTTTTDATQPHHHHHHHRHRDAGVKNVTNNSKTTESSSSSSAAKEKPKHKKGLLHKLKKKL
B5: Hxt1 (protein, UniProt P32465 1-570)
chain: MNSTPDLISPQKSNSSNSYELESGRSKAMNTPEGKNESFHDNLSESQVQPAVAPPNTGKGVYVTVSICCVMVAFGGFIFGWDTGTISGFVAQTDFLRRFGMKHHDGSHYLSKVRTGLIVSIFNIGCAIGGIVLAKLGDMYGRRIGLIVVVVIYTIGIIIQIASINKWYQYFIGRIISGLGVGGITVLSPMLISEVAPSEMRGTLVSCYQVMITLGIFLGYCTNFGTKNYSNSVQWRVPLGLCFAWALFMIGGMMFVPESPRYLVEAGRIDEARASLAKVNKCPPDHPYIQYELETIEASVEEMRAAGTASWGELFTGKPAMFQRTMMGIMIQSLQQLTGDNYFFYYGTIVFQAVGLSDSFETSIVFGVVNFFSTCCSLYTVDRFGRRNCLMWGAVGMVCCYVVYASVGVTRLWPNGQDQPSSKGAGNCMIVFACFYIFCFATTWAPIAYVVISECFPLRVKSKCMSIASAANWIWGFLISFFTPFITGAINFYYGYVFMGCMVFAYFYVFFFVPETKGLSLEEVNDMYAEGVLPWKSASWVPVSKRGADYNADDLMHDDQPFYKSLFSRK
B6: Mrn1 (protein, UniProt Q08925 1-612)
chain: MVVSYNNNNNNNNNNNNNNISNNNNNNNMFPPFPSSDDFAMYQQSSSSGPYQETYASGPQNFGDAVYPMNGNFTLLPSDFTREPNDSFFYENDGIFDYQRIQQQPTQFQTKQRNDSQQQRFSQEQNFEIDNEVVHNNNRYYEYERSSNEVSPFDDENPNVLSDGMSPTIMATATAVTNANAPLPVNAQANNPLNFTSAPSRTVYLGNVPPNLSVKELLDHVRSGVVEDVKIIPEKMCAFVSFIDESAALLFHSDAILKRLNIGDRDIKIGWGKPTRIDPIVAARISTDGATRNVYIGRMTIEGEESHLSEEQLRVDLEEYGEIDCIKIIKEKGIAFIHFASILNAIKVVTNLPIRNPYYQNKRIFYGKDRCAFITKTQQHNAAQFLGVQPGMEHMIEFSDREFISNALLQQSAAAAAIATSAGGPNNLGNRTVYLGSLPKDVKIEEICNAVRGGLLQSIKLLNDRYVCFVTFIDPTAAAQFYAMSSLYGFTVQKKRCKVGWGKHSGPLPNALALAVSNGASRNVYVGNIDFVGDSLRDERVFTESNLRHIFQQYGEVEQINFLPEKNCCFINYTNISNAILALDKIKSNPYFKDLKINFGKDRCGNVPHQSR
B7: Nat1 (protein, UniProt P12945 1-854)
chain: MSRKRSTKPKPAAKIALKKENDQFLEALKLYEGKQYKKSLKLLDAILKKDGSHVDSLALKGLDLYSVGEKDDAASYVANAIRKIEGASASPICCHVLGIYMRNTKEYKESIKWFTAALNNGSTNKQIYRDLATLQSQIGDFKNALVSRKKYWEAFLGYRANWTSLAVAQDVNGERQQAINTLSQFEKLAEGKISDSEKYEHSECLMYKNDIMYKAASDNQDKLQNVLKHLNDIEPCVFDKFGLLERKATIYMKLGQLKDASIVYRTLIKRNPDNFKYYKLLEVSLGIQGDNKLKKALYGKLEQFYPRCEPPKFIPLTFLQDKEELSKKLREYVLPQLERGVPATFSNVKPLYQRRKSKVSPLLEKIVLDYLSGLDPTQDPIPFIWTNYYLSQHFLFLKDFPKAQEYIDAALDHTPTLVEFYILKARILKHLGLMDTAAGILEEGRQLDLQDRFINCKTVKYFLRANNIDKAVEVASLFTKNDDSVNGIKDLHLVEASWFIVEQAEAYYRLYLDRKKKLDDLASLKKEVESDKSEQIANDIKENQWLVRKYKGLALKRFNAIPKFYKQFEDDQLDFHSYCMRKGTPRAYLEMLEWGKALYTKPMYVRAMKEASKLYFQMHDDRLKRKSDSLDENSDEIQNNGQNSSSQKKKAKKEAAAMNKRKETEAKSVAAYPSDQDNDVFGEKLIETSTPMEDFATEFYNNYSMQVREDERDYILDFEFNYRIGKLALCFASLNKFAKRFGTTSGLFGSMAIVLLHATRNDTPFDPILKKVVTKSLEKEYSENFPLNEISNNSFDWLNFYQEKFGKNDINGLLFLYRYRDDVPIGSSNLKEMIISSLSPLEPHSQNEILQYYL
B8: Map1 (protein, UniProt Q01662 11-387)
chain: SDQASHPTKIYCSGLQCGRETSSQMKCPVCLKQGIVSIFCDTSCYENNYKAHKALHNAKDGLEGAYDPFPKFKYSGKVKASYPLTPRRYVPEDIPKPDWAANGLPVSEQRNDRLNNIPIYKKDQIKKIRKACMLGREVLDIAAAHVRPGITTDELDEIVHNETIKRGAYPSPLNYYNFPKSLCTSVNEVICHGVPDKTVLKEGDIVNLDVSLYYQGYHADLNETYYVGENISKEALNTTETSRECLKLAIKMCKPGTTFQELGDHIEKHATENKCSVVRTYCGHGVGEFFHCSPNIPHYAKNRTPGVMKPGMVFTIEPMINEGTWKDMTWPDDWTSTTQDGKLSAQFEHTLLVTEHGVEILTARNKKSPGGPRQRIK
B9: Mis1 (protein, UniProt P09440 35-975)
chain: YHILSGRKLAQSIREKANDEIQAIKLKHPNFKPTLKIIQVGARPDSSTYVRMKLKASKDSNVDCIIEKLPAEITEVELLKKISDINDDDSIHGLLIQLPLPRHLDETTITNAVDFKKDVDGFHRYNAGELAKKGGKPYFIPCTPYGCMKLLEEAHVKLDGKNAVVLGRSSIVGNPIASLLKNANATVTVCHSHTRNIAEVVSQADIVIAACGIPQYVKSDWIKEGAVVIDVGINYVPDISKKSGQKLVGDVDFDSVKEKTSYITPVPGGVGPMTVAMLVSNVLLAAKRQFVESEKLPVIKPLPLHLESPVPSDIDISRAQSPKHIKQVAEELGIHSHELELYGHYKAKISPNIFKRLESRENGKYVLVAGITPTPLGEGKSTTTMGLVQALSAHLGKPSIANVRQPSLGPTLGVKGGAAGGGYAQVIPMDEFNLHLTGDIHAISAANNLLAAAIDTRMFHEATQKNDSTFYKRLVPRKKGIRKFTPSMQRRLKRLDIEKEDPDALTPEEVKRFARLNINPDTITIRRVVDINDRMLRQITIGEAATEKGFTRTTGFDITVASELMAILALSKSLHEMKERIGRMVIGADYDNKPVTVEDIGCTGALTALLRDAIKPNLMQTLEGTPVMVHAGPFANISIGASSVIADLMALKLVGSEKNPLNDKNIHEPGYVVTEAGFDFAMGGERFFDIKCRSSGLVPDAVVLVATVRALKSHGGAPNVKPGQSLPKEYTEENIDFVAKGVSNLVKQIENIKTFGIPVVVAINRFETDSQAEIEVIKKAALNAGASHAVTSNHWMEGGKGAVELAHAVVDATKEPKNFNFLYDVNSSIEDKLTSIVQKMYGGAKIEVSPEAQKKIDTYKKQGFGNLPICIAKTQYSLSHDPSLKGVPRGFTFPIRDVRASIGAGYLYALAAEIQTIPGLSTYAGYMAVEVDDDGEIEGLF

Protein sequences, listed by entry. Tags and fused reporters are not part of them.
UniProt P53297: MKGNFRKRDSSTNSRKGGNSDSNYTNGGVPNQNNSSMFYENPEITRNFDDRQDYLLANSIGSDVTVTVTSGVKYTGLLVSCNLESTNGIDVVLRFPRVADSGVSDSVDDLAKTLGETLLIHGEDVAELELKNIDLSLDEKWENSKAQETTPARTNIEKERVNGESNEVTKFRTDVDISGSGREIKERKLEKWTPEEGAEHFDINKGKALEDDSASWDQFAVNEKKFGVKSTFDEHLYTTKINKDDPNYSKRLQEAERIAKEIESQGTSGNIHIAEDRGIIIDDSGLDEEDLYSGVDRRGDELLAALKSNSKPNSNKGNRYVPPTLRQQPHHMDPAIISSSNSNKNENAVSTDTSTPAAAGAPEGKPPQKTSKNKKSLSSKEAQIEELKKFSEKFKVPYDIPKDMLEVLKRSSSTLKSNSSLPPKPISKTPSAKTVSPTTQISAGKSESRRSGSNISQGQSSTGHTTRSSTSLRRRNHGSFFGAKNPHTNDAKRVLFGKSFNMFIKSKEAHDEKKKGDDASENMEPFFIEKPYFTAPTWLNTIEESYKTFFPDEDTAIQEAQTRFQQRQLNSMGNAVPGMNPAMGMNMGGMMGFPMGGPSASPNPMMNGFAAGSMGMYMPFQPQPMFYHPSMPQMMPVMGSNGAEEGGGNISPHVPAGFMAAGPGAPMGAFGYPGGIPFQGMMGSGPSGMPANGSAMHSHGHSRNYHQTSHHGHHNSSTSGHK

target: Pbp1-myc (S. cerevisiae) (UniProt P53297); assay: affinity purification with mass spectrometry; cells unstressed or glucose-depleted (10 min for Dcp1-myc, 60 min for Pbp1-myc), cross-linked with 0.8% formaldehyde; 20,000 g pellet of the lysate in Blob100 buffer (20 mM Tris-HCl pH 8, 100 mM NaCl, 1 mM MgCl2, 0.5% NP40) on anti-c-Myc magnetic beads, eluted with Myc peptide; label-free LC-MS/MS; hits are the proteins that cluster (Mfuzz) with the tagged bait across IP, pellet, supernatant, total and unbound fractions

binding, binds:
B1, B2, B3, B4, B5, B6, B7, B8, B9

— PMC8782181
